Reference: patent EP2294930A2
Results are given in words; binding and its absence hold for the method and conditions named. Some binding calls cover weakened binding; strength is not graded here.

Amino acid sequences for entries named in this document (tags omitted). Residues count along the entry.
UniProt P00772, residues 27-266: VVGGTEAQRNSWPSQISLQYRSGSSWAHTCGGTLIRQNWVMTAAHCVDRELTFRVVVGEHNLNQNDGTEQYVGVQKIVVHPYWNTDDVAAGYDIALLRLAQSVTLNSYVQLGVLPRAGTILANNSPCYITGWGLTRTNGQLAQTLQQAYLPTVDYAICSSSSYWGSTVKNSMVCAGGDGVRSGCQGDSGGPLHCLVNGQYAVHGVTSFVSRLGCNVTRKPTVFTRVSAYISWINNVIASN
UniProt P01009, residues 25-418: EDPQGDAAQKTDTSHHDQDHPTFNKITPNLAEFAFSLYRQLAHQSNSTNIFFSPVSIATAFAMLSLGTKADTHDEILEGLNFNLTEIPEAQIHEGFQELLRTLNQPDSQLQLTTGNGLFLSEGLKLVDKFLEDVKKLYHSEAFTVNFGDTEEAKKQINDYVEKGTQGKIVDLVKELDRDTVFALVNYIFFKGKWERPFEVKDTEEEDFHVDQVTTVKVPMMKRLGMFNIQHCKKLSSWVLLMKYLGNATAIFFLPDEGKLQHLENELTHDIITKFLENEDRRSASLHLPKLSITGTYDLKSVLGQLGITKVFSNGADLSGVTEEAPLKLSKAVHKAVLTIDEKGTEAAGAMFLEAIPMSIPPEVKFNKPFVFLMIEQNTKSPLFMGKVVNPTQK

How the values were obtained:
[1] = molecular target: porcine pancreatic elastase (porcine) (UniProt P00772); test: band shift assay: AAT sample with 100 ng PPE, 37 C, 15 min; covalent-linked complex seen by SDS-PAGE and Western blot
[2] = molecular target: porcine pancreatic elastase (porcine) (UniProt P00772); test: band shift assay with equal moles of PPE, 37 C, 15 min; Coomassie stain and Western blot

binding [1]: binds | binding [2]: binds
Substance: recombinant human alpha-1-antitrypsin produced in transgenic rice (from UniProt P01009 25-418)
